Experimental data taken from paper PMC3977970.
No constants are given. Whether binding was seen depends on the method and setting. In cells and extracts the contact can be indirect. A yes stands for co-enrichment or nearness to the bait. Other partners may have been found.

Chains of the proteins cited; added tags and fusions are not shown.
UniProt Q9Y6J8: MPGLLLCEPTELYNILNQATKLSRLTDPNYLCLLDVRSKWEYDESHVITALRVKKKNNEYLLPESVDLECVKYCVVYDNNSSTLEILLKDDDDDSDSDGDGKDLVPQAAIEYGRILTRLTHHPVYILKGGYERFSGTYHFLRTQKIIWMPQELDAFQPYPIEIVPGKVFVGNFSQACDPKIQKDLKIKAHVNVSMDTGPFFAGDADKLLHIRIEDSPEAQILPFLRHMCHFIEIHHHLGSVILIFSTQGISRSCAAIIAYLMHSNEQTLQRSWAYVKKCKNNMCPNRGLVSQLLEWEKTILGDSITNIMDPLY

Target: TAP-epitope-tagged MK-STYX (human) (UniProt Q9Y6J8)
Experiment: affinity purification with mass spectrometry; tandem affinity purification (two steps) of N- or C-terminally TAP-tagged MK-STYX from HeLa cells, each in triplicate; SDS-PAGE, in-gel trypsin digest, LC-MS/MS; filtered against ~350 control TAP experiments

B1: PTPMT1 (PTP localized to mitochondrion 1), endogenous (protein, UniProt Q8WUK0-1 28-201)
chain: KVPGRAHRDWYHRIDPTVLLGALPLRSLTRQLVQDENVRGVITMNEEYETRFLCNSSQEWKRLGVEQLRLSTVDMTGIPTLDNLQKGVQFALKYQSLGQCVYVHCKAGRSRSATMVAAYLIQVHKWSPEEAVRAIAKIRSYIHIRPGQLDVLKEFHKQITARATKDGTFVISKT
**Q.** For B1, which binding is on record?
**A.** binds
